Laboratory results taken from PubChem BioAssay AID1347423 (Functional Genomics Laboratory (NCATS/FGL), 2020).
Hit rate of the full screen: of about 52,000 sequences, about 210 (0.4%) were called active.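 The calls were made as follows: active = gene whose silencing raises cell survival under the drug, median off-target-corrected z-score across its silencing RNAs 2 or more; inactive = the rest.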 This is one part of the list.

assay: Resistance to Poly (ADP-Ribose) Polymerase inhibitor: Gene Identification via Genome-wide siRNA Screen; conditions: mouse BRCA2 R2336H ES cells, olaparib, CellTiter-Glo viability; stronger effect = higher value
How it was run: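 Mouse BRCA2 R2336H ES cells were reverse-transfected with siRNA (20 nM final), treated at 48 h with 500 nM olaparib, and read by CellTiter-Glo after 72 h. Scores: MAD-based z per siRNA, median per gene, seed off-target correction.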

Row | Sequence | z-score
1 | CGUCCCUAGUAUAAAAAGATT against Cxxc5 | inactive: -0.568
2 | GCAUCAUCGUGGGAAACCUTT against Olfr1284 | inactive: 2.12
3 | GCAAUUGAGACUGGCCUCATT against Olfr151 | inactive: 0.42
4 | GGAUGCUAUAUGUUGGCCGTT against D730001G18Rik | inactive: -0.507
5 | CCUGUUGUCAUGCACUUUATT against Pla2g4c | inactive: 1.21
6 | GAGUAUGCUACCAAUUCCUTT against Olfr1141 | inactive: -0.222
7 | CCUACGUUCAAGACUCGAGTT against Ptgir | inactive: -1.08
8 | CCAUAAAGAACAUCACUAATT against C330012H03Rik | inactive: -0.31
9 | GAGCUGCUAAUGGAACCCUTT against 5730411O18Rik | inactive: -1.34
10 | GGUAUUUCAGAUAACCUGGTT against Gm1805 | inactive: 0.0577
11 | GGUGCCGCACACAAACAAUTT against Hipk2 | inactive: 2.34
12 | GGCGAGUCUACGUGACACUTT against Arrb1 | inactive: -0.347
13 | GGACAUUUGAGCUCAAGAUTT against Mrpl11 | inactive: -0.148
14 | UCCUCUCUCUAUAUUUCUUTT against Defb38 | inactive: -0.168
15 | CGAAAUUGAUUCUAUCUGCTT against Katnal1 | inactive: -0.271
16 | GCCGUUUUCCACCAAUGACTT against Ammecr1 | inactive: -0.787
17 | CGCUUGACACUCACACUUUTT against Hoxa9 | inactive: 0.637
18 | GGUUUCUGCAUUGAUAAGATT against Olfr727 | inactive: 0.194
19 | CCCUCAUACCGCUUAGAACTT against 4833401D15Rik | inactive: -0.415
20 | GGAAGGUAUAGACAACUAUTT against Syngr3 | inactive: -1.11
21 | GGUCCUGAAGAAGAUUGCATT against Hmox1 | inactive: -1.95
22 | GGUAGAUAUUGGAAUACCUTT against Vcp | inactive: -1.91

Row | Sequence | z-score
23 | GGGAAGAAGCCCAAAUGCUTT against Pla2g2a | inactive: -0.754
24 | GGUGAAGCCAGUUUCUUUATT against AI429613 | inactive: 1.42
25 | GAAGAGUAACGAAGAAUACTT against Olfr199 | inactive: -0.791
26 | GGGCCACACAUCAAACAGUTT against Fsip1 | inactive: 1.88
27 | CGGAAGAAGUUAUUUAGAATT against 1700006J14Rik | inactive: -0.374
28 | CCUGCUCCAACGUAAUGUCTT against Ldh3 | inactive: -1.58
29 | GGUUGUCGUCAUCCUGGAATT against Kcnj3 | inactive: 1.61
30 | CCAGUACUCACUAGAUUUATT against Tnfsf18 | inactive: 0.701
31 | GGAAAACAAGAGAAGGCGCTT against Pom121 | inactive: -0.933
32 | GGUUCUCAAAGAAAAGUUUTT against 1810056O20Rik | inactive: -0.145
33 | GGUGAAAUCCUGAUGUUUUTT against Vps33b | inactive: 0.0823
34 | CCUUCCUAAGCUUACACAATT against Cradd | inactive: -0.761
35 | GGUAGCCAUAUCUAACAGCTT against Scd1 | inactive: 0.197
36 | GGUGAUGAGCAGAAUCCAGTT against BC004701 | inactive: -0.121
37 | CCCUAUGCAAUAUCAAAAUTT against Hnrpa1 | inactive: -0.658
38 | GGUGCUGUAUUUGAUGUUATT against Nudt6 | inactive: 0.00281
39 | GCAAAUGUCUCGGAAAGAATT against Cdc2l1 | inactive: -3.6
40 | GCACCGAGUGCAAUAGUGUTT against Kremen | inactive: 2.19
41 | GCACUCACGAUCAUCUUUGTT against Has1 | inactive: 0.122
42 | GGAGAAGAUGCCAAUCAAGTT against Mdm1 | inactive: 0.229
43 | AAUAACAGGCCGGUCGAGATT against 2410025L10Rik | inactive: -0.531
44 | GCAGUUCACGCAGUGGAAGTT against 2200001I15Rik | inactive: 0.855

Row | Sequence | z-score
45 | CCGCUCUACCACAGCCUUATT against 3732413I11Rik | inactive: -1.97
46 | GGACAUUGCUACACAACUCTT against Akp3 | inactive: 0.851
47 | GGUAUAAAGACUGUGUAAATT against 2610305D13Rik | inactive: -0.437
48 | GGCAAAUCACAUCCAACAATT against Cyp2c39 | inactive: -1.28
49 | GCGAAAGCCUCUCCAUAAGTT against Lnx1 | inactive: -0.162
50 | GGGUGCCUUAAAAAAACUCTT against Olfr136 | inactive: -0.749
51 | GGUGGAUAGUUAUAAAGCATT against AU016693 | inactive: -1.13
52 | GGGUUGAAGUUUGUCGAAATT against Nlgn1 | inactive: -0.228
53 | GGAAGAUUCGUUCAGACCUTT against Cntf | inactive: 0.48
54 | GCUGUACAGUCAAUACCUGTT against D10Bwg1364e | inactive: 2.01
55 | GGCGUAAGUUGGAUUUGUUTT against Idh3b | inactive: 0.425
56 | GGAAAAUGUCCGUAAAAGGTT against Dtx2 | inactive: 0.845
57 | GGCAAACUCUAUCUCCAAATT against 2610524G09Rik | inactive: 0.0995
58 | GCCACUUCAUAUUUUUGACTT against 4632422M10Rik | inactive: -0.417
59 | GGCAUUUGAAAUGCUCAUCTT against Aadat | inactive: -0.837
60 | GCACGCCUGAUGCUAGAGATT against Gss | inactive: -1.45
61 | GGAAAAAAGCCGGGAAACCTT against 2410026K10Rik | inactive: -0.986
62 | CGGUCCUGAGGAAGUGUUATT against Wfdc1 | inactive: 2.47
63 | GGAGGAAUUUGGCUAUAAUTT against Arfip2 | inactive: -2.36
64 | GGUUUUACCACAGAUUUGCTT against Olfr42 | inactive: -1.11
65 | GGAAGAAUUGGCAAGUGCUTT against 0610012D17Rik | inactive: -0.32
66 | GCAGCAUACUAAUAAACUGTT against Them2 | inactive: 0.278

Looked up one by one from the entries so far:
Row | Sequence | z-score
35 | GGUAGCCAUAUCUAACAGCTT against Scd1 | inactive: 0.197
20 | GGAAGGUAUAGACAACUAUTT against Syngr3 | inactive: -1.11
26 | GGGCCACACAUCAAACAGUTT against Fsip1 | inactive: 1.88
5 | CCUGUUGUCAUGCACUUUATT against Pla2g4c | inactive: 1.21
59 | GGCAUUUGAAAUGCUCAUCTT against Aadat | inactive: -0.837
